Patent US20260216242A1, “ALPP-SPECIFIC VARIANT ANTIGEN BINDING MOLECULES” (ALMAC DISCOVERY LIMITED, priority 2022, published 2026)
Some entries share one result that the patent states for a list of compounds.

System: Caov-3 ovarian cancer xenograft model
Assay: In vivo efficacy, Caov-3 ovarian cancer CDX, Q4D×4
Set-up: species or system mouse
Details: 3 mg/kg Q4D×4

Molecule | mice with complete regressions (CRs) observed at end of study (Day 61)
PDC1: DAR4 biparatopic VHH-hFc-MMAE protein-drug conjugate of Example 12 (Tables 33-35) (conjugate) chain 1: QVQLVESGGGLVQPGGSLRLSCAASGSIFSVNTMGWYRQAPGKQRDLVAVATSGGTIHYADSVKGRFTISRDNAKNTVYLQMNSLKPEDTAVYYCNLVVPYGMIAGDHDYWGQGTKVTVSSGGGGSGGGGSGGGGSEPKSSDKTHTCPPCPAPELLGGPCVFLFPPKPKDTLMISRTPEVTCVVVDVSHEDPEVKFNWYVDGVEVHNAKTKPREEQYNSTYRVVSVLTVLHQDWLNGKEYKCKVSNKALPAPIEKTISKAKGQPREPQVYTLPPSRDELTKNQVSLYCLVKGFYPSDIAVEWESNGQPENNYKTTPPVLDSDGSFFLYSKLTVDKSRWQQGNVFSCSVMHEALHNHYTQKSLCLSPGK chain 2: QVHLVESGGGLVQAGGSLRLSCAASRRSFSEYAMGWFRQAPGKEREFVAAIGWSGVIEYADSVKGRFTISRDNAKDTVYLQMNSLKPEDTAVYYCAAGLGIRVVSQTPAYWGQGTQVTVSSGGGGSGGGGSGGGGSEPKSSDKTHTCPPCPAPELLGGPCVFLFPPKPKDTLMISRTPEVTCVVVDVSHEDPEVKFNWYVDGVEVHNAKTKPREEQYNSTYRVVSVLTVLHQDWLNGKEYKCKVSNKALPAPIEKTISKAKGQPREPQVYTLPPSRDELTKNQVSLTCLVKGFYPSDIAVEWESNGQPENNYKTTPPVLDSDGSFFLTSKLTVDKSRWQQGNVFSCSVMHEALHNHYTQKSLCLSPGK | complete regressions (CRs) were observed
PDC2: DAR4 biparatopic VHH-hFc-MMAE protein-drug conjugate of Example 12 (Tables 33-35) (conjugate) chain 1: QVQLVESGGGLVQPGGSLRLSCAASGSIFSVNTMGWYRQAPGKQRDLVAVATSGGTIHYADSVKGRFTISRDNAKNTVYLQMNSLKPEDTAVYYCNLVVPYGMIAGDHDYWGQGTKVTVSSGGGGSGGGGSGGGGSEPKSSDKTHTCPPCPAPELLGGPCVFLFPPKPKDTLMISRTPEVTCVVVDVSHEDPEVKFNWYVDGVEVHNAKTKPREEQYNSTYRVVSVLTVLHQDWLNGKEYKCKVSNKALPAPIEKTISKAKGQPREPQVYTLPPSRDELTKNQVSLYCLVKGFYPSDIAVEWESNGQPENNYKTTPPVLDSDGSFFLYSKLTVDKSRWQQGNVFSCSVMHEALHNHYTQKSLCLSPGK chain 2: QVQLVESGGGLVQAGGSLRLSCAASGRAFGDYNIGWFRQAPGKEREFVARRTWDGSSTRYDDSVKGRFTVSIDNAKNTAYLQMNSLKTEDTAVYYCAAGRYSRVRGWEYDYWGQGTQVTVSSGGGGSGGGGSGGGGSEPKSSDKTHTCPPCPAPELLGGPCVFLFPPKPKDTLMISRTPEVTCVVVDVSHEDPEVKFNWYVDGVEVHNAKTKPREEQYNSTYRVVSVLTVLHQDWLNGKEYKCKVSNKALPAPIEKTISKAKGQPREPQVYTLPPSRDELTKNQVSLTCLVKGFYPSDIAVEWESNGQPENNYKTTPPVLDSDGSFFLTSKLTVDKSRWQQGNVFSCSVMHEALHNHYTQKSLCLSPGK | complete regressions (CRs) were observed
PDC3: DAR4 biparatopic VHH-hFc-MMAE protein-drug conjugate of Example 12 (Tables 33-35) (conjugate) chain 1: QVHLVESGGGLVQAGGSLRLSCAASGRTFLSMGWFRQAPGKEREFVAAISWTGGSTGYADSVKGRFTISRESDKETMYLQMNSLKPEDTAVYYCAARGDVYYGGDDATRYKYWGQGTQVTVSSGGGGSGGGGSGGGGSEPKSSDKTHTCPPCPAPELLGGPCVFLFPPKPKDTLMISRTPEVTCVVVDVSHEDPEVKFNWYVDGVEVHNAKTKPREEQYNSTYRVVSVLTVLHQDWLNGKEYKCKVSNKALPAPIEKTISKAKGQPREPQVYTLPPSRDELTKNQVSLYCLVKGFYPSDIAVEWESNGQPENNYKTTPPVLDSDGSFFLYSKLTVDKSRWQQGNVFSCSVMHEALHNHYTQKSLCLSPGK chain 2: QVQLVESGGGLVQAGGSLRLSCAASGRAFGDYNIGWFRQAPGKEREFVARRTWDGSSTRYDDSVKGRFTVSIDNAKNTAYLQMNSLKTEDTAVYYCAAGRYSRVRGWEYDYWGQGTQVTVSSGGGGSGGGGSGGGGSEPKSSDKTHTCPPCPAPELLGGPCVFLFPPKPKDTLMISRTPEVTCVVVDVSHEDPEVKFNWYVDGVEVHNAKTKPREEQYNSTYRVVSVLTVLHQDWLNGKEYKCKVSNKALPAPIEKTISKAKGQPREPQVYTLPPSRDELTKNQVSLTCLVKGFYPSDIAVEWESNGQPENNYKTTPPVLDSDGSFFLTSKLTVDKSRWQQGNVFSCSVMHEALHNHYTQKSLCLSPGK | complete regressions (CRs) were observed
PDC4: DAR4 biparatopic VHH-hFc-MMAE protein-drug conjugate of Example 12 (Tables 33-35) (conjugate) chain 1: QVQLVESGGGLVQPGGSLRLSCAASGSIFSVNTMGWYRQAPGKQRDLVAVATSGGTIHYADSVKGRFTISRDNAKNTVYLQMNSLKPEDTAVYYCNLVVPYGMIAGDHDYWGQGTKVTVSSGGGGSEPKSSDKTHTCPPCPAPELLGGPCVFLFPPKPKDTLMISRTPEVTCVVVDVSHEDPEVKFNWYVDGVEVHNAKTKPREEQYNSTYRVVSVLTVLHQDWLNGKEYKCKVSNKALPAPIEKTISKAKGQPREPQVYTLPPSRDELTKNQVSLYCLVKGFYPSDIAVEWESNGQPENNYKTTPPVLDSDGSFFLYSKLTVDKSRWQQGNVFSCSVMHEALHNHYTQKSLCLSPGK chain 2: QVQLVESGGGLVQAGGSLRLSCAASGRAFGDYNIGWFRQAPGKEREFVARRTWDGSSTRYDDSVKGRFTVSIDNAKNTAYLQMNSLKTEDTAVYYCAAGRYSRVRGWEYDYWGQGTQVTVSSGGGGSEPKSSDKTHTCPPCPAPELLGGPCVFLFPPKPKDTLMISRTPEVTCVVVDVSHEDPEVKFNWYVDGVEVHNAKTKPREEQYNSTYRVVSVLTVLHQDWLNGKEYKCKVSNKALPAPIEKTISKAKGQPREPQVYTLPPSRDELTKNQVSLTCLVKGFYPSDIAVEWESNGQPENNYKTTPPVLDSDGSFFLTSKLTVDKSRWQQGNVFSCSVMHEALHNHYTQKSLCLSPGK | complete regressions (CRs) were observed
